Reference: article PMC11298625
The exact form of at least one protein or probe is not confirmed. For some of these results: Weaker means in comparison with the reference protein, sequence or condition of that experiment. For some of these results: At least one verdict rests on a figure or table, not on a statement of the authors.

Chains of the proteins cited; added tags and fusions are not shown.
UniProt A0A9E6GT21, entry or part of it: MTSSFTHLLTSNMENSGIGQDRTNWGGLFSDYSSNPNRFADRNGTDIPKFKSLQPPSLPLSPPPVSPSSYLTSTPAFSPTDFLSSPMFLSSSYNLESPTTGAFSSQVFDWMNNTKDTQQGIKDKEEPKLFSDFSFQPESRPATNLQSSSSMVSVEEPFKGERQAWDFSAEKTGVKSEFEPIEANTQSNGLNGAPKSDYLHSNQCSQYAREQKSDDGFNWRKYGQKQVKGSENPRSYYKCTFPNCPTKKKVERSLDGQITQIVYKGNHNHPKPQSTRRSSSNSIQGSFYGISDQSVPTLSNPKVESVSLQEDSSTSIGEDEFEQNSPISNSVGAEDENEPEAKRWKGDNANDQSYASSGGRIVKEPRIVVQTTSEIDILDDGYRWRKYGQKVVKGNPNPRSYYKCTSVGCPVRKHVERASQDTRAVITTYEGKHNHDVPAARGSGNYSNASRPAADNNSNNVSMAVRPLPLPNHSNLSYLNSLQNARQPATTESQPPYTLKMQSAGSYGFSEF

Experiments:
[1] = molecular target: T1, MdWRKY17 (Malus x domestica) (UniProt A0A9E6GT21); assay: competition with a labelled probe; details: unlabeled 100x cold probe; Chemiluminescent EMSA Kit (Beyotime); pH and temperature not stated; recombinant protein; protein details: His (pET32a); label: biotin
[2] = molecular target: T1, MdWRKY17 (Malus x domestica); assay: EMSA; details: mutant probe, text states only that specificity was confirmed; Chemiluminescent EMSA Kit (Beyotime); pH and temperature not stated; recombinant protein; protein details: His (pET32a)
MdWRKY17 + MdVQ17 = assay: EMSA; details: MdVQ17-GST (2x, 3x) enhances MdWRKY17 binding; Chemiluminescent EMSA Kit (Beyotime); pH and temperature not stated; recombinant protein; protein details: His (pET32a),GST; label: biotin

Sequence	binding result [1]	binding result [2]	also measured
AAGTCAACTAAAAAAGTCAACGTCTGACCGTTGACTGGTCAAAG (double strand) [MdPL-like-P2 probe]	binds		
AATTTAACTAAAAAATTTAACGTCTGACCGTTAAATGGTTAAAG (double strand) [MdPL-like-P2-mut]		binds more weakly	
AGGAGTACCTTTAAAAAAACTATATTCAAA (double strand) [MdPL-like-P1-mut]		binds more weakly	
AGGAGTACCTTTGGTCAAACTATATTCAAA (double strand) [MdPL-like-P1 probe]	binds		
AGTTAAAAATTAATTGTTAATTGATTTAACATTTAATTTTAACT (double strand) [MdPL-like-P3-mut]		binds more weakly	
AGTTGACCATTGACCGTTGACTGAGTCAACAGTCAAGGTCAACT (double strand) [MdPL-like-P3 probe]	binds		
ATATTGTTTTCTGCATTTTTGACTTAATTTTTATAAATTAA (double strand) [MdDMR6 probe]			binding result (MdWRKY17 + MdVQ17): binds
